Some of the results follow.
How the values were obtained:
Assay in all cases: log2 fold change, soluble protein after heating vs DMSO (PISA); higher = thermal stabilisation; K562 lysate, 10 uM; active = over 0.2 and 3.5 SD of the protein, either way, in both replicates (recomputed)
[1] = compound: CC(=O)c1cnc2ccc(-c3cc(Cl)c(O)c(Cl)c3)nc2c1N[C@H]1CC[C@H](CN(C)C)CC1
Summary of the method: (§1)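 K562 pellets were dounce-homogenised in PBS pH 7.4 containing 1 mM MgCl2, and the crude extract, at 1 mg/mL protein, was exposed to 10 μM compound for 30 min. Aliquots were heated for 3 min across 48°C-58°C, pooled, brought to 0.5% NP-40 at 4°C and spun at 21,000xg for 90 min, with the supernatant taken as soluble protein. TMTpro 16plex LC-MS/MS with equalised channel sums quantified that protein. Values are log-two fold changes in thermal stability relative to solvent controls, taken from duplicates.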

Protein sequences, listed by entry. Tags and fused reporters are not part of them. Lines headed by an entry give the natural chain unless they say otherwise; changes in a name come on top.
UniProt Q9NZM1: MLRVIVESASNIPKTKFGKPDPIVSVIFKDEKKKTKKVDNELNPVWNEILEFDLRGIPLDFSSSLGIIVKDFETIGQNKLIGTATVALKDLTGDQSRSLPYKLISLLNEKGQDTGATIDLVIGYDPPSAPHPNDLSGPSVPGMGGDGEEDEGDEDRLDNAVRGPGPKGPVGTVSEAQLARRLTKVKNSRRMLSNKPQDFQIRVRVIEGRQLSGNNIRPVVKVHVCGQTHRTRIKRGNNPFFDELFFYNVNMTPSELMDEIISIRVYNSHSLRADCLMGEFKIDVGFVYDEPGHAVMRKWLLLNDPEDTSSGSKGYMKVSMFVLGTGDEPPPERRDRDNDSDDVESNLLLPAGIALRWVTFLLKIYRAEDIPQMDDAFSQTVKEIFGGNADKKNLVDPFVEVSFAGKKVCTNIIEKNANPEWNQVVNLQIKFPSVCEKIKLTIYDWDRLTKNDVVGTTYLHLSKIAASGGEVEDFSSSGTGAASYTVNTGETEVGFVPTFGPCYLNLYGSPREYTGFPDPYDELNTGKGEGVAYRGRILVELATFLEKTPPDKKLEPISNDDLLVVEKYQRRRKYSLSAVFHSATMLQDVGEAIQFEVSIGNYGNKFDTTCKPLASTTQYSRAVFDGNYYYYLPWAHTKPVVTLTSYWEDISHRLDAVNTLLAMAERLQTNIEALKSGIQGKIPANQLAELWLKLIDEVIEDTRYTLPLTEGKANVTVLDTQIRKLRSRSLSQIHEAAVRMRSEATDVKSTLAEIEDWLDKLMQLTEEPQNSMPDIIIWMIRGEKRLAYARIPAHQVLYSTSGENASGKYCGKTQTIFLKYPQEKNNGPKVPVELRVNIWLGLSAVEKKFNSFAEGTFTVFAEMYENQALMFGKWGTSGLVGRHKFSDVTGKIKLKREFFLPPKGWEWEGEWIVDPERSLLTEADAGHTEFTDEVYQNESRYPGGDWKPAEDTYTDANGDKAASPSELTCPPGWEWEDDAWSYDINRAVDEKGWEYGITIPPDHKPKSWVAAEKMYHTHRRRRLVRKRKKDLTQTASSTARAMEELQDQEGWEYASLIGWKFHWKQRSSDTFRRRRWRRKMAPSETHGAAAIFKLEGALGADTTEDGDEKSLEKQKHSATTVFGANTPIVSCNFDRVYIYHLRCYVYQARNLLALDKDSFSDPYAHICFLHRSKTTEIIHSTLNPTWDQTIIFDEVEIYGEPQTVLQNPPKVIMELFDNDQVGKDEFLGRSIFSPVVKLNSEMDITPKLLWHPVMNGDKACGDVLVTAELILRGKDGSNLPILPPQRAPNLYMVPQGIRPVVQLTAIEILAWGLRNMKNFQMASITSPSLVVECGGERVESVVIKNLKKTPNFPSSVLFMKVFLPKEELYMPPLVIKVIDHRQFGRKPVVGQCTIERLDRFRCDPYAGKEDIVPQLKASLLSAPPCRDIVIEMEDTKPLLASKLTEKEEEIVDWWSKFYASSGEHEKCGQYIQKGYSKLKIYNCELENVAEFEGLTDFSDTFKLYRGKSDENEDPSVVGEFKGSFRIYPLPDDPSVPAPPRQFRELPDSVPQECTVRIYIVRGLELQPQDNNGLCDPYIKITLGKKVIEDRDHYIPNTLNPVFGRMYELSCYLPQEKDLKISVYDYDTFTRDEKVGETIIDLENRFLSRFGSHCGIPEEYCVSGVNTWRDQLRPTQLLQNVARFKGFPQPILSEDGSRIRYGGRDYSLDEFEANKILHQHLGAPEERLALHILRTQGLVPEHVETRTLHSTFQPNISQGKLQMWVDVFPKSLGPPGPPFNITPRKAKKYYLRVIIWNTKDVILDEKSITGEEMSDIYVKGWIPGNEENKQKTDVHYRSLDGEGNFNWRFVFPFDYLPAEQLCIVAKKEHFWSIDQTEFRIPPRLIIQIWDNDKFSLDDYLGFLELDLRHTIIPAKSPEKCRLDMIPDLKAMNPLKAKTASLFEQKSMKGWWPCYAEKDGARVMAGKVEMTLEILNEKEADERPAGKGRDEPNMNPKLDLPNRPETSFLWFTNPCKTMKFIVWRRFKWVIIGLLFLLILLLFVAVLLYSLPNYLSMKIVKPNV
UniProt G3V1V0: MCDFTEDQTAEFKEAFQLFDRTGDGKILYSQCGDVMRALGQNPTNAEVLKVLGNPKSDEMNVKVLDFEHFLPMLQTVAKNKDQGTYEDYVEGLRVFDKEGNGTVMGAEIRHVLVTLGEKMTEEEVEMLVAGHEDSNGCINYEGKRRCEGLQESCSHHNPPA
UniProt P84157: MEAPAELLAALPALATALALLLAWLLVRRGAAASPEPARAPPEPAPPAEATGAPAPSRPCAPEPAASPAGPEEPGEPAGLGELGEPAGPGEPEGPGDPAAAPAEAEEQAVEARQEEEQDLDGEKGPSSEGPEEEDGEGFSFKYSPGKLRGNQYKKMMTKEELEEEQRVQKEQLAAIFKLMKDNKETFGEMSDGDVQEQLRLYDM
UniProt Q9NPC7: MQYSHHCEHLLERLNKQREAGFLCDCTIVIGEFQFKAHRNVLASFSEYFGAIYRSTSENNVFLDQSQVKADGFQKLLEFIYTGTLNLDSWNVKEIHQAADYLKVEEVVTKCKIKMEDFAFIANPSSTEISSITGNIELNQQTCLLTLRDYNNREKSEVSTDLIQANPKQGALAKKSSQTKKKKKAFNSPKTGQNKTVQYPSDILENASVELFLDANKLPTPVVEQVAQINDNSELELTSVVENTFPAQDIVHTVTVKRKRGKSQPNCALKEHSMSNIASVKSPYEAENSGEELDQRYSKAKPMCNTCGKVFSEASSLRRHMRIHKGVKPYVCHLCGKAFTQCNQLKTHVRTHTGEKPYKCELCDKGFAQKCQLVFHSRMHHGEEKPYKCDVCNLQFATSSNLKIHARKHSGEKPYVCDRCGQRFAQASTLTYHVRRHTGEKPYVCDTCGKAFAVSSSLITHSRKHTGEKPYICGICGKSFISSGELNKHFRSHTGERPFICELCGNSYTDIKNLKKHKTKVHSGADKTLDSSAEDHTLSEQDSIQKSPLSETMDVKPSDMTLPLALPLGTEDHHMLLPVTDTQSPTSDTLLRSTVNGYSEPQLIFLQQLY
UniProt Q13506: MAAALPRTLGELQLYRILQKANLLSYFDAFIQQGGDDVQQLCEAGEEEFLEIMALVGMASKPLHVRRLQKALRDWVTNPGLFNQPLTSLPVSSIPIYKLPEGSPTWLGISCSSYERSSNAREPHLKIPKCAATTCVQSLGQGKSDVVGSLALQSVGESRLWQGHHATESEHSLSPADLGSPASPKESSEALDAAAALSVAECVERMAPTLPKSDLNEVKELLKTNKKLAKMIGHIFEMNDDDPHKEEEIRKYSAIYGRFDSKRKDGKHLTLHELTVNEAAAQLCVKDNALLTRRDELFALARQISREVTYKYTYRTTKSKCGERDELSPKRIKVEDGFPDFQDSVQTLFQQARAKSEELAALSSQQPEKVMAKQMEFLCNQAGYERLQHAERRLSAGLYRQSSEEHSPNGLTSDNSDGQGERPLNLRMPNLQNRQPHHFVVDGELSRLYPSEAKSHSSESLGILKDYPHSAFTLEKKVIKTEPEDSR
UniProt P60660, whole entry, looked up: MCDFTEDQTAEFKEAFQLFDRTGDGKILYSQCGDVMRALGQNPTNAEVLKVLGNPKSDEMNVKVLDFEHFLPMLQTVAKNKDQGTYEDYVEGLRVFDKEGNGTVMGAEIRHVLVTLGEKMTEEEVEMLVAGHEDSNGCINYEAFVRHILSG
UniProt Q96AH0: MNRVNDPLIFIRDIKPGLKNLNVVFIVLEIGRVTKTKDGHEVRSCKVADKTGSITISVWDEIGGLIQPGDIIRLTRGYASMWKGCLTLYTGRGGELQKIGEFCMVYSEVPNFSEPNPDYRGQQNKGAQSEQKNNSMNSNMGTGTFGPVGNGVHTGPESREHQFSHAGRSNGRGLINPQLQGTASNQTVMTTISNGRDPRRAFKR
UniProt Q9HCH0: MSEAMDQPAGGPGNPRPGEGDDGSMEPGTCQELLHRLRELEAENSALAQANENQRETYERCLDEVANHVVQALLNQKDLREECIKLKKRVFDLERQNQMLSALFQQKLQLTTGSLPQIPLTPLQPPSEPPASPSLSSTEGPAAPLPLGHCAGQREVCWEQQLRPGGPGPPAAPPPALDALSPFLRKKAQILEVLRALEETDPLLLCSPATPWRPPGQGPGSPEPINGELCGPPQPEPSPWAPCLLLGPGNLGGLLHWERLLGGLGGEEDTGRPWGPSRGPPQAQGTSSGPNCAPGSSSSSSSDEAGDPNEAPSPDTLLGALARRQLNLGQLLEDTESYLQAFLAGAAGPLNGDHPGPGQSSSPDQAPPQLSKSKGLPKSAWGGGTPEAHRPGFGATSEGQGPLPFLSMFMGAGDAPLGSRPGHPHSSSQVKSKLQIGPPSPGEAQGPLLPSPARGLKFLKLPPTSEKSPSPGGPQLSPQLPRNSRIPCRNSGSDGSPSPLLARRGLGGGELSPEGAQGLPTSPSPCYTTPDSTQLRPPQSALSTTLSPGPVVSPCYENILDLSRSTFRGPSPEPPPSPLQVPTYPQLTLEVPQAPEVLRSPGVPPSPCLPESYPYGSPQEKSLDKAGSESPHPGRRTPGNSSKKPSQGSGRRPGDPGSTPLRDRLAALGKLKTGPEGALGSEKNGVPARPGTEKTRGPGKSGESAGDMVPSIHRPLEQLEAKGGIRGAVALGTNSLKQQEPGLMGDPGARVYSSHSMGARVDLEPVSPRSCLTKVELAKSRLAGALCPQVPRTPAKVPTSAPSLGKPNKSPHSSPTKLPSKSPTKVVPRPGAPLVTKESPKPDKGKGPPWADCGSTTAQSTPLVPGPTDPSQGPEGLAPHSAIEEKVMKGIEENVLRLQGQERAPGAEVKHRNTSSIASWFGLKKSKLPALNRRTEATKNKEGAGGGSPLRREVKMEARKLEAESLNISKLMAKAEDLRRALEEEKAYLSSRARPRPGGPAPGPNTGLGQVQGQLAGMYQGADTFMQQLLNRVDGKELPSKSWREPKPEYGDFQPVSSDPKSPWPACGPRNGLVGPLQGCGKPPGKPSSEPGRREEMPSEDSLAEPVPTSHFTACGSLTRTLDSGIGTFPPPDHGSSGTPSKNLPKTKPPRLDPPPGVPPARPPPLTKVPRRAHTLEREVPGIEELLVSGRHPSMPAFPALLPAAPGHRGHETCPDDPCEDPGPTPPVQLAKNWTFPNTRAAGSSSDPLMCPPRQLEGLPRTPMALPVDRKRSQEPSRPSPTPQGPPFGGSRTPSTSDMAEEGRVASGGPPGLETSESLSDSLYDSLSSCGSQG
UniProt Q8WUY8: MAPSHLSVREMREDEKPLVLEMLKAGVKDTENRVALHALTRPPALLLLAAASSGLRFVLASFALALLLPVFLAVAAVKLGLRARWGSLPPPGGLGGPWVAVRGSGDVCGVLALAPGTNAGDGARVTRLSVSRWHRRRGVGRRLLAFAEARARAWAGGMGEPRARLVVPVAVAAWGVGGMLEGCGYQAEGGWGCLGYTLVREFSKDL
UniProt Q8NI08: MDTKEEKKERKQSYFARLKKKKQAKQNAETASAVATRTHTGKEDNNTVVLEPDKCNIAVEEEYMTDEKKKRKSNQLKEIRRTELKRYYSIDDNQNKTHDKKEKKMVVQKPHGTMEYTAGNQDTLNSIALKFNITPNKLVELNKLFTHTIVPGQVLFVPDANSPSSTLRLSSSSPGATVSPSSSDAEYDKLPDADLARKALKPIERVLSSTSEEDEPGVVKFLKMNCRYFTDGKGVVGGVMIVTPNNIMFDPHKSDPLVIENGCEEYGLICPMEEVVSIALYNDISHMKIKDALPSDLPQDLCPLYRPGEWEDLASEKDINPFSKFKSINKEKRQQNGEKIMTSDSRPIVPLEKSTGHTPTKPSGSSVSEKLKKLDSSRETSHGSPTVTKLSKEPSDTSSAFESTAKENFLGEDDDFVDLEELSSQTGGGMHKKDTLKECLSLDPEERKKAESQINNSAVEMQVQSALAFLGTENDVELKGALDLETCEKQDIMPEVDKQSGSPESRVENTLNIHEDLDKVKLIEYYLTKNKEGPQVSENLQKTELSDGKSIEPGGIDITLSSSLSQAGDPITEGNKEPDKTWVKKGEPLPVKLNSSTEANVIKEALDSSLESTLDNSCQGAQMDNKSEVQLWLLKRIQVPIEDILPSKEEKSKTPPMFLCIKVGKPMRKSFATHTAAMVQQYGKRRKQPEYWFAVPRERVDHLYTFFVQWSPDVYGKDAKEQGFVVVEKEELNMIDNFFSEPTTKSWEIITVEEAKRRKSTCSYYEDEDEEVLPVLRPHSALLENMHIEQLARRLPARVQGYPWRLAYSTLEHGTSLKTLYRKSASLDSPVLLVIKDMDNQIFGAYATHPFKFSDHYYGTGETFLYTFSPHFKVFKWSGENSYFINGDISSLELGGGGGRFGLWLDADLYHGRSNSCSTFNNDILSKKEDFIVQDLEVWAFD

[2] = compound: CC(C)C1=C2N=C(C=C(N2N=C1)NCC3=CC=CC=C3)NCCCCCCN
Summary of the method: as §1

[3] = compound: CC1=CC=C(C=C1)SC2=C3C=C(SC3=CN=C2)C(=O)N
Summary of the method: as §1

[4] = compound: CCCS(=O)(=O)Nc1ccc(F)c(C(=O)c2c[nH]c3ncc(Cl)cc23)c1F
Summary of the method: as §1

volasertib = compound: CC[C@@H]1C(=O)N(C)c2cnc(Nc3ccc(C(=O)N[C@H]4CC[C@H](N5CCN(CC6CC6)CC5)CC4)cc3OC)nc2N1C(C)C [volasertib]
Summary of the method: as §1

[5] = compound: CCn1cc(-c2ccnc3[nH]c(-c4cccc(CN(C)C)c4)cc23)c(-c2ccc(NC(=O)N(C)C)cc2)n1
Summary of the method: as §1

[6] = compound: CN1CCC(CNc2ccc3ncc(-c4cccc(OC(F)(F)F)c4)n3n2)CC1
Summary of the method: as §1

[7] = compound: CC1=C(C2=C(C=C1)C(=O)C3=CC=CC=C3N2CCCN)C
Summary of the method: as §1

saracatinib = compound: CN1CCN(CCOc2cc(OC3CCOCC3)c3c(Nc4c(Cl)ccc5c4OCO5)ncnc3c2)CC1 [saracatinib]
Summary of the method: as §1

ralimetinib = compound: CC(C)(C)Cn1c(N)nc2ccc(-c3[nH]c(C(C)(C)C)nc3-c3ccc(F)cc3)nc21 [ralimetinib]
Summary of the method: as §1

[8] = compound: CC(C)(O)CC(=O)NCCn1ccc2ncnc(Nc3ccc(Oc4cccc(C(F)(F)F)c4)c(Cl)c3)c21
Summary of the method: as §1

[9] = compound: CC1=C(C(CC(=O)N1)C2=CC=C(C=C2)C(F)(F)F)C(=O)NC3=C(C=C4C(=C3)C=NN4)F
Summary of the method: as §1

[10] = compound: CC1=C(C=C(C=C1)NC(=O)C2=CC(=CC=C2)C(C)(C)C#N)NC3=CC4=C(C=C3)N=CN(C4=O)C
Summary of the method: as §1

[11] = compound: CC1=C(C=C(C=C1)NC(=O)C2=CC(=CC=C2)N(C)C)NC(=O)C3=CC=C(C=C3)O
Summary of the method: as §1

vemurafenib = compound: CCCS(=O)(=O)Nc1ccc(F)c(C(=O)c2c[nH]c3ncc(-c4ccc(Cl)cc4)cc23)c1F [vemurafenib]
Summary of the method: as §1

[12] = compound: CC[C@@H]1C(=O)N(C)c2cnc(Nc3ccc(C(=O)NC4CCN(C)CC4)cc3OC)nc2N1C1CCCC1
Summary of the method: as §1

[13] = compound: CCn1c(C(=O)N(C2CC2)C2CC2)cc2c3c(ncn3C)c(Nc3cc(C)n(C)n3)nc21
Summary of the method: as §1

sotrastaurin = compound: CN1CCN(c2nc(C3=C(c4c[nH]c5ccccc45)C(=O)NC3=O)c3ccccc3n2)CC1 [sotrastaurin]
Summary of the method: as §1

ibrutinib = compound: C=CC(=O)N1CCC[C@@H](n2nc(-c3ccc(Oc4ccccc4)cc3)c3c(N)ncnc32)C1 [ibrutinib]
Summary of the method: as §1

barasertib = compound: CCN(CCCOc1ccc2c(Nc3cc(CC(=O)Nc4cccc(F)c4)[nH]n3)ncnc2c1)CCOP(=O)(O)O [barasertib]
Summary of the method: as §1

Measured: log2 fold change

NAMPT (UniProt C9JF35)
inactive: [1] -0.034 | [2] -0.019 | [3] -0.039 | [4] 0.055 | volasertib -0.013 | [5] -0.196 | [6] 0.215

MYOF (UniProt Q9NZM1)
inactive: [7] 0.083 | saracatinib 0.156

MYL6 (UniProt G3V1V0)
inactive: [1] -0.061 | ralimetinib -0.053 | [8] -0.024 | [2] -0.039 | [9] -0.006 | [7] 0.02 | [10] 0.056 | [11] 0.025 | [3] -0.051 | vemurafenib 0.059 | [4] 0.035 | [12] 0.042 | volasertib 0.052 | [13] -0.162 | [5] -0.054 | [6] -0.182 | saracatinib -0.018 | sotrastaurin 0.057

NCL (UniProt H7BY16)
inactive: ibrutinib -0.127 | [9] 0.015 | barasertib -0.027

MXRA7 (UniProt P84157)
inactive: [1] -0.234 | ralimetinib 0.108 | [8] 0.027 | [2] -0.057 | [9] -0.074 | [7] 0.024 | [10] 0.021 | [11] 0.045 | [3] -0.023 | vemurafenib -0.134 | [4] 0.094 | [12] -0.006 | volasertib 0.054 | [13] 0.049 | [5] -0.182 | [6] 0.167 | saracatinib 0.02 | sotrastaurin -0.064

NAP1L1 (UniProt H0YHC3)
inactive: [1] -0.106 | [3] 0.149 | [4] -0.194 | volasertib -0.177

NCLN isoform 2 (UniProt Q969V3)
inactive: ralimetinib -0.048 | [8] 0.047 | [10] 0.091 | [11] -0.102 | vemurafenib 0.018 | [12] 0.097 | [13] -0.179 | sotrastaurin 0.05

NACC2 (UniProt Q96BF6)
inactive: ralimetinib -0.067 | [8] -0.071 | [2] -0.119 | [9] 0.096 | [7] 0 | [10] -0.014 | [11] -0.365 | vemurafenib 0.053 | [12] -0.391 | [13] 0.039 | [5] -0.034 | [6] 0.096 | saracatinib -0.176 | sotrastaurin 0.068

MYO10 (UniProt Q9HD67)
inactive: ibrutinib -0.059 | ralimetinib -0.136 | [8] -0.385 | [2] 0.035 | [9] -0.078 | [10] -0.001 | [11] 0.042 | vemurafenib 0.483 | barasertib 0.171 | [13] -0.185 | [6] -0.381 | sotrastaurin -0.287
active: [5] 1.26

MYNN (UniProt Q9NPC7)
inactive: ralimetinib -0.291 | [8] -0.052 | [2] 0.065 | [7] 0.001 | [11] 0.152 | vemurafenib 0.078 | [13] -0.096 | saracatinib 0.118

NAB1 (UniProt Q13506)
inactive: ibrutinib -0.105 | ralimetinib 0.095 | [8] -0.208 | [2] 0.107 | [9] -0.016 | [7] -0.024 | [10] 0.162 | [11] 0.16 | barasertib -0.035 | [13] 0.012 | [5] -0.043 | [6] -0.02 | saracatinib 0.081 | sotrastaurin -0.028

MYH3 (UniProt P11055)
inactive: ralimetinib -0.012 | [8] -0.038 | [2] -0.039 | [7] -0.003 | [11] 0.027 | vemurafenib -0.045 | [13] -0.044 | [5] 0.128 | [6] -0.346 | saracatinib -0.125

MYL6 isoform 2 (UniProt P60660)
inactive: [1] 0.098 | ralimetinib 0.007 | [8] 0.016 | [2] -0.093 | [9] -0.027 | [7] 0.006 | [10] 0.06 | [11] -0.063 | [3] 0.077 | vemurafenib -0.309 | [4] 0.07 | [12] -0.05 | volasertib -0.046 | [13] -0.005 | [5] -0.164 | [6] -0.027 | saracatinib -0.012 | sotrastaurin -0.001

MYH2 (UniProt Q9UKX2)
inactive: ibrutinib 0.761 | [7] 0.165 | barasertib 0.317 | saracatinib 0.167

NABP1 (UniProt Q96AH0)
inactive: [9] 0.072 | vemurafenib -0.024 | [12] -0.132

MYT1L (UniProt Q9UL68)
inactive: [1] 0.041 | ralimetinib 0.031 | [8] 0.03 | [11] 0.134 | [3] -0.061 | [4] -0.031 | volasertib 0.043 | [13] -0.045

NARS1 (UniProt K7ENF0)
inactive: [10] -0.059 | sotrastaurin 0.107

Fetched one by one from the entries so far (two):
MYO10 (UniProt Q9HD67)
inactive: ibrutinib -0.059 | ralimetinib -0.136 | [8] -0.385 | [2] 0.035 | [9] -0.078 | [10] -0.001 | [11] 0.042 | vemurafenib 0.483 | barasertib 0.171 | [13] -0.185 | [6] -0.381 | sotrastaurin -0.287
active: [5] 1.26

NABP1 (UniProt Q96AH0)
inactive: [9] 0.072 | vemurafenib -0.024 | [12] -0.132

Remaining list, next part

MYBL2 (UniProt P10244)
inactive: ralimetinib 0 | [8] 0.02 | [2] -0.008 | [7] 0.057 | [10] 0.048 | [11] -0.013 | vemurafenib -0.07 | [12] 0.013 | [13] 0.069 | [5] 0.217 | [6] -0.296 | saracatinib 0.057 | sotrastaurin 0.043

MUC5B (UniProt Q9HC84)
inactive: [1] -0.129 | [2] -0.059 | [9] 0.852 | [7] -0.115 | [10] 0.011 | [3] -0.108 | [4] 0.085 | [12] 0.027 | volasertib -0.008 | [5] 0.685 | [6] -0.324 | saracatinib 0.004 | sotrastaurin -0.055

NCKAP5L (UniProt Q9HCH0)
inactive: [1] -0.221 | ralimetinib -0.008 | [8] -0.036 | [2] -0.053 | [9] 0.141 | [7] 0.119 | [10] 0.043 | [11] -0.01 | [3] -0.122 | [4] 0.04 | [12] 0.119 | volasertib -0.062 | [13] -0.012 | [5] 0.046 | [6] 0.031 | saracatinib -0.043 | sotrastaurin -0.016

NAT14 (UniProt Q8WUY8)
inactive: ralimetinib 0.062 | [8] 0.207 | [2] 0.07 | [7] -0.172 | [10] 0.031 | [11] 0.149 | vemurafenib 0.08 | [12] 0.061 | [13] 0.033 | [5] -0.058 | [6] -0.264 | saracatinib 0.086 | sotrastaurin 0.137

NCOA7 isoform 2 (UniProt Q8NI08)
inactive: [1] -0.083 | [7] 0.019 | [3] -0.061 | [4] 0.16 | volasertib -0.01 | saracatinib -0.016

NCOA1 isoform 2 (UniProt Q15788)
inactive: [1] 0.143 | [2] 0.091 | [7] 0.038 | [3] -0.125 | vemurafenib 0.048 | [4] -0.123 | volasertib -0.061 | [5] 0.039 | [6] -0.1 | saracatinib 0.032

NCF4 (UniProt Q15080)
inactive: ibrutinib 0.164 | [10] 0.074 | barasertib -0.23 | [12] -0.009 | [5] -0.423 | [6] 0.201 | sotrastaurin -0.045

MYC isoform 2 (UniProt P01106)
inactive: ralimetinib 0.063 | [8] -0.081 | [9] 0.01 | [11] -0.011 | [13] 0.16 | [5] -0.106 | [6] 0.072
